Publication PMC10747250, “Structure-Based Optimization of 1,2,4-Triazole-3-Thione Derivatives: Improving Inhibition of NDM-/VIM-Type Metallo-β-Lactamases and Synergistic Activity on Resistant Bacteria” (Pharmaceuticals, 2023)

What was measured:
E. coli MO-978 (NDM1) = experiment: Synergy with meropenem, broth microdilution MIC; type: cell-based; conditions: Escherichia coli; MEM alone (Cpd: None)
Protocol: (§1) The potential synergistic activity of the three best inhibitors (CP 35, CP 56, and CP 57) was tested using the broth microdilution method on six MBL-producing multidrug-resistant clinical isolates. […] Although apparently modest, this increase in synergistic activity represents a significant improvement over the previous generation of triazole-thione β-lactamase inhibitors previous described by our group.

E. coli MO-287 (NDM-1) = experiment: Synergy with meropenem, broth microdilution MIC; type: cell-based; conditions: Escherichia coli; MEM alone (Cpd: None)
Protocol: as §1

MIC (E. coli MO-978 (NDM1)): 256 µg/mL | MIC (E. coli MO-287 (NDM-1)): 64 µg/mL
SMILES: C[C@@H](O)[C@H]1C(=O)N2C(C(=O)O)=C(S[C@@H]3CN[C@H](C(=O)N(C)C)C3)[C@H](C)[C@H]12 [MEM, meropenem, reference compound]
